# The list shows a part of the results.
# B1: GS13971A-bth-447-22-447 (Bacteroides thetaiotaomicron) (protein)
# chain: EDVDNERSKGMFSASQSGFSTIEVYDLGPLNKIDLSIAKAGLEDTGGTVTFSVEQSLLDSLNNADGTSYQLLPPECYTIENATYSVSPGGDRRVTGGSLVYDPHKIYNLCGFDELKYVLPLRVSSTGTPMNSDRTATLYGFIVKEAIVRLASTGGDFVVEGGTTTSPMNLDTEISFENEWDLTTSFATKGADYVDNYNSANSTYYIPLPSDFYTLPDVTIAKGKTTGGSAISLLGETLPPGNYLLPVSLGGLSGQGDASINIDKETVANYFVIKQGGPINRDHWTVTANTEEKTGEVSAAYPHNGQTISLIDGEINTFWHSKWQGGEVAPPYEIILDMGKENSVSQLGLIARQNALTSMNLEIYAGDDGETWNLIGKYFFDGSIKTEQMVPVKACDARWIRIYIPTLGSGSSVGHLAEIYVYGTDK
# Tests used:
# Experiment in all cases: glycan array binding signal (z-score within array); higher = stronger binding
# Conditions in all cases: glycan notation: IUPAC condensed, linker removed
# [1] = biological target: Neu5Ac(a2-6)Gal(b1-3)GlcNAc(b1-3)[Gal(b1-4)GlcNAc(b1-6)]Gal(b1-4)Glc
# Summary of the method: (§1)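 Glycan array binding is given as a within-array Z-score, which can be read as non-binding when negative. The arrays, 3228 of them, came from the Consortium for Functional Glycomics database and were retained only where the protein sequence was available. Z-scores were averaged across arrays of the same protein sequence at different concentrations or buffers and across linkers.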
# Neu5Ac(a2-6)Gal(b1-4)Glc = biological target: Neu5Ac(a2-6)Gal(b1-4)Glc
# Summary of the method: as §1
# [2] = biological target: Neu5Ac(a2-6)Gal(b1-4)GlcNAc
# Summary of the method: as §1
# [3] = biological target: Neu5Ac(a2-6)Gal(b1-4)GlcNAc(b1-2)Man
# Summary of the method: as §1
# [4] = biological target: Neu5Ac(a2-6)Gal(b1-4)GlcNAc(b1-2)Man(a1-3)Man(b1-4)GlcNAc(b1-4)GlcNAc
# Summary of the method: as §1
# [5] = biological target: Neu5Ac(a2-6)Gal(b1-4)GlcNAc(b1-2)Man(a1-3)[Gal(b1-4)GlcNAc(b1-2)Man(a1-6)]Man(b1-4)GlcNAc(b1-4)GlcNAc
# Summary of the method: as §1
# [6] = biological target: Neu5Ac(a2-6)Gal(b1-4)GlcNAc(b1-2)Man(a1-3)[GlcNAc(b1-2)Man(a1-6)]Man(b1-4)GlcNAc(b1-4)GlcNAc
# Summary of the method: as §1
# [7] = biological target: Neu5Ac(a2-6)Gal(b1-4)GlcNAc(b1-2)Man(a1-3)[GlcNAc(b1-4)][Neu5Ac(a2-6)Gal(b1-4)GlcNAc(b1-2)Man(a1-6)]Man(b1-4)GlcNAc(b1-4)GlcNAc
# Summary of the method: as §1
# [8] = biological target: Neu5Ac(a2-6)Gal(b1-4)GlcNAc(b1-2)Man(a1-3)[Man(a1-6)]Man(b1-4)GlcNAc(b1-4)GlcNAc
# Summary of the method: as §1
# [9] = biological target: Neu5Ac(a2-6)Gal(b1-4)GlcNAc(b1-2)Man(a1-3)[Neu5Ac(a2-3)Gal(b1-4)GlcNAc(b1-2)Man(a1-6)]Man(b1-4)GlcNAc(b1-4)GlcNAc
# Summary of the method: as §1
# [10] = biological target: Neu5Ac(a2-6)Gal(b1-4)GlcNAc(b1-2)Man(a1-3)[Neu5Ac(a2-6)Gal(b1-4)GlcNAc(b1-2)Man(a1-6)]Man(b1-4)GlcNAc(b1-4)GlcNAc
# Summary of the method: as §1
# [11] = biological target: Neu5Ac(a2-6)Gal(b1-4)GlcNAc(b1-2)Man(a1-3)[Neu5Ac(a2-6)Gal(b1-4)GlcNAc(b1-2)Man(a1-6)]Man(b1-4)GlcNAc(b1-4)[Fuc(a1-6)]GlcNAc
# Summary of the method: as §1
# [12] = biological target: Neu5Ac(a2-6)Gal(b1-4)GlcNAc(b1-2)Man(a1-6)Man(b1-4)GlcNAc(b1-4)GlcNAc
# Summary of the method: as §1
# [13] = biological target: Neu5Ac(a2-6)Gal(b1-4)GlcNAc(b1-2)Man(a1-6)[Gal(b1-4)GlcNAc(b1-2)Man(a1-3)]Man(b1-4)GlcNAc(b1-4)GlcNAc
# Summary of the method: as §1
# [14] = biological target: Neu5Ac(a2-6)Gal(b1-4)GlcNAc(b1-2)Man(a1-6)[GlcNAc(b1-2)Man(a1-3)]Man(b1-4)GlcNAc(b1-4)GlcNAc
# Summary of the method: as §1
# [15] = biological target: Neu5Ac(a2-6)Gal(b1-4)GlcNAc(b1-2)Man(a1-6)[Man(a1-3)]Man(b1-4)GlcNAc(b1-4)GlcNAc
# Summary of the method: as §1
# [16] = biological target: Neu5Ac(a2-6)Gal(b1-4)GlcNAc(b1-2)[Neu5Ac(a2-6)Gal(b1-4)GlcNAc(b1-4)]Man(a1-3)[GlcNAc(b1-4)][Neu5Ac(a2-6)Gal(b1-4)GlcNAc(b1-2)[Neu5Ac(a2-6)Gal(b1-4)GlcNAc(b1-6)]Man(a1-6)]Man(b1-4)GlcNAc(b1-4)GlcNAc
# Summary of the method: as §1
# [17] = biological target: Neu5Ac(a2-6)Gal(b1-4)GlcNAc(b1-2)[Neu5Ac(a2-6)Gal(b1-4)GlcNAc(b1-4)]Man(a1-3)[GlcNAc(b1-4)][Neu5Ac(a2-6)Gal(b1-4)GlcNAc(b1-4)Man(a1-6)]Man(b1-4)GlcNAc(b1-4)GlcNAc
# Summary of the method: as §1
# [18] = biological target: Neu5Ac(a2-6)Gal(b1-4)GlcNAc(b1-2)[Neu5Ac(a2-6)Gal(b1-4)GlcNAc(b1-6)]Man(a1-6)[Neu5Ac(a2-6)Gal(b1-4)GlcNAc(b1-2)Man(a1-3)][GlcNAc(b1-4)]Man(b1-4)GlcNAc(b1-4)GlcNAc
# Summary of the method: as §1
# [19] = biological target: Neu5Ac(a2-6)Gal(b1-4)GlcNAc(b1-3)Gal(b1-3)GlcNAc
# Summary of the method: as §1
# [20] = biological target: Neu5Ac(a2-6)Gal(b1-4)GlcNAc(b1-3)Gal(b1-4)GlcNAc
# Summary of the method: as §1
# [21] = biological target: Neu5Ac(a2-6)Gal(b1-4)GlcNAc(b1-3)Gal(b1-4)GlcNAc(b1-2)Man(a1-3)[Neu5Ac(a2-6)Gal(b1-4)GlcNAc(b1-3)Gal(b1-4)GlcNAc(b1-2)Man(a1-6)]GalNAc
# Summary of the method: as §1
# [22] = biological target: Neu5Ac(a2-6)Gal(b1-4)GlcNAc(b1-3)Gal(b1-4)GlcNAc(b1-3)Gal(b1-4)GlcNAc
# Summary of the method: as §1
# [23] = biological target: Neu5Ac(a2-6)Gal(b1-4)GlcNAc(b1-3)Gal(b1-4)GlcNAc(b1-3)Gal(b1-4)GlcNAc(b1-2)Man(a1-3)[Neu5Ac(a2-6)Gal(b1-4)GlcNAc(b1-3)Gal(b1-4)GlcNAc(b1-3)Gal(b1-4)GlcNAc(b1-2)Man(a1-6)]GalNAc
# Summary of the method: as §1
# [24] = biological target: Neu5Ac(a2-6)Gal(b1-4)GlcNAc(b1-3)Gal(b1-4)GlcNAc(b1-3)GalNAc
# Summary of the method: as §1
# [25] = biological target: Neu5Ac(a2-6)Gal(b1-4)GlcNAc(b1-3)Gal(b1-4)GlcNAc(b1-3)[Neu5Ac(a2-6)Gal(b1-4)GlcNAc(b1-3)Gal(b1-4)GlcNAc(b1-6)]GalNAc
# Summary of the method: as §1
# [26] = biological target: Neu5Ac(a2-6)Gal(b1-4)GlcNAc(b1-3)Gal(b1-4)GlcNAc(b1-6)[Gal(b1-3)]GalNAc
# Summary of the method: as §1
# [27] = biological target: Neu5Ac(a2-6)Gal(b1-4)GlcNAc(b1-3)Gal(b1-4)[Fuc(a1-3)]GlcNAc(b1-3)Gal(b1-4)[Fuc(a1-3)]GlcNAc
# Summary of the method: as §1
# [28] = biological target: Neu5Ac(a2-6)Gal(b1-4)GlcNAc(b1-3)GalNAc
# Summary of the method: as §1
# [29] = biological target: Neu5Ac(a2-6)Gal(b1-4)GlcNAc(b1-3)[Neu5Ac(a2-6)Gal(b1-4)GlcNAc(b1-6)]GalNAc
# Summary of the method: as §1
# [30] = biological target: Neu5Ac(a2-6)Gal(b1-4)GlcNAc(b1-6)GalNAc
# Summary of the method: as §1
# [31] = biological target: Neu5Ac(a2-6)Gal(b1-4)GlcNAc(b1-6)[Gal(b1-3)GlcNAc(b1-3)]Gal(b1-4)Glc
# Summary of the method: as §1
# [32] = biological target: Neu5Ac(a2-6)Gal(b1-4)GlcNAc(b1-6)[Gal(b1-3)]GalNAc
# Summary of the method: as §1
# [33] = biological target: Neu5Ac(a2-6)Gal(b1-4)GlcNAc6S
# Summary of the method: as §1
# Neu5Ac(a2-6)GalNAc = biological target: Neu5Ac(a2-6)GalNAc
# Summary of the method: as §1
# [34] = biological target: Neu5Ac(a2-6)GalNAc(b1-4)GlcNAc
# Summary of the method: as §1
# [35] = biological target: Neu5Ac(a2-6)GalNAc(b1-4)GlcNAc6S
# Summary of the method: as §1
# [36] = biological target: Neu5Ac(a2-6)GlcNAc(b1-4)GlcNAc
# Summary of the method: as §1
binder,measurement,setting,value
B1,glycan array binding signal (z-score),[1],0.019
same,glycan array binding signal (z-score),Neu5Ac(a2-6)Gal(b1-4)Glc,0.196
same,glycan array binding signal (z-score),[2],-0.188
same,glycan array binding signal (z-score),[3],0.996
same,glycan array binding signal (z-score),[4],-0.975
same,glycan array binding signal (z-score),[5],-0.594
same,glycan array binding signal (z-score),[6],-0.032
same,glycan array binding signal (z-score),[7],0.18
same,glycan array binding signal (z-score),[8],-0.289
same,glycan array binding signal (z-score),[9],-0.011
same,glycan array binding signal (z-score),[10],0.264
same,glycan array binding signal (z-score),[11],-0.821
same,glycan array binding signal (z-score),[12],-1.16
same,glycan array binding signal (z-score),[13],0.73
same,glycan array binding signal (z-score),[14],0.459
same,glycan array binding signal (z-score),[15],-0.26
same,glycan array binding signal (z-score),[16],0.548
same,glycan array binding signal (z-score),[17],-1.25
same,glycan array binding signal (z-score),[18],-1.04
same,glycan array binding signal (z-score),[19],-0.555
same,glycan array binding signal (z-score),[20],0.604
same,glycan array binding signal (z-score),[21],-0.099
same,glycan array binding signal (z-score),[22],-1.17
same,glycan array binding signal (z-score),[23],-0.631
same,glycan array binding signal (z-score),[24],-1.02
same,glycan array binding signal (z-score),[25],-0.529
same,glycan array binding signal (z-score),[26],-0.378
same,glycan array binding signal (z-score),[27],-0.211
same,glycan array binding signal (z-score),[28],-0.52
same,glycan array binding signal (z-score),[29],-0.595
same,glycan array binding signal (z-score),[30],-0.516
same,glycan array binding signal (z-score),[31],-0.069
same,glycan array binding signal (z-score),[32],-1.14
same,glycan array binding signal (z-score),[33],-1.24
same,glycan array binding signal (z-score),Neu5Ac(a2-6)GalNAc,-0.71
same,glycan array binding signal (z-score),[34],-0.654
same,glycan array binding signal (z-score),[35],-0.483
same,glycan array binding signal (z-score),[36],0.582

# An excerpt of these results, with tabs.
binder	measurement	setting	value
B1	glycan array binding signal (z-score)	Neu5Ac(a2-6)Gal(b1-4)Glc	0.196
same	glycan array binding signal (z-score)	[2]	-0.188
same	glycan array binding signal (z-score)	[3]	0.996
same	glycan array binding signal (z-score)	[4]	-0.975
same	glycan array binding signal (z-score)	[5]	-0.594
same	glycan array binding signal (z-score)	[6]	-0.032
same	glycan array binding signal (z-score)	[7]	0.18
same	glycan array binding signal (z-score)	[8]	-0.289
same	glycan array binding signal (z-score)	[9]	-0.011
same	glycan array binding signal (z-score)	[10]	0.264
same	glycan array binding signal (z-score)	[11]	-0.821
